Amino acid sequences for entries named in this document (tags omitted). A change or cut given only in a name is not applied to a line headed by its entry.
UniProt Q5LDU9: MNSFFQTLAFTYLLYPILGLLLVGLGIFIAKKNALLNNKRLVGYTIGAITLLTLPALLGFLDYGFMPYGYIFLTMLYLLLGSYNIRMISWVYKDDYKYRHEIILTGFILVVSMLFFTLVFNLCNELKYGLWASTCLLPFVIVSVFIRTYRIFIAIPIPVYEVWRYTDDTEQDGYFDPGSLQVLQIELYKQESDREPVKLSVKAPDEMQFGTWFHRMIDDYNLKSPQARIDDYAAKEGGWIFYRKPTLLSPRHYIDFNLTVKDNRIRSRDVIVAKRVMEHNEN
UniProt Q5LDV4: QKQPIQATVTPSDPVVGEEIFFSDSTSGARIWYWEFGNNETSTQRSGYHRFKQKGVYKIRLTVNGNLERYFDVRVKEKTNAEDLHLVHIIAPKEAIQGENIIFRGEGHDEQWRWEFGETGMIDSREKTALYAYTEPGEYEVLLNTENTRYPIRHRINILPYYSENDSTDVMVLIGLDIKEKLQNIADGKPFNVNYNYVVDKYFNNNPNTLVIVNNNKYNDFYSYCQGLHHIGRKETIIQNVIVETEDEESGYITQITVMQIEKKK
UniProt Q5LDV3: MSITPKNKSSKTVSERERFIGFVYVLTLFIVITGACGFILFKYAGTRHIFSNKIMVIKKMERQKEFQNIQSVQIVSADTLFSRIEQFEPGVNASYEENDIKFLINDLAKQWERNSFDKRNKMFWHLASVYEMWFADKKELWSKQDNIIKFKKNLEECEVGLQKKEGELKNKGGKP
UniProt A0A380YY58: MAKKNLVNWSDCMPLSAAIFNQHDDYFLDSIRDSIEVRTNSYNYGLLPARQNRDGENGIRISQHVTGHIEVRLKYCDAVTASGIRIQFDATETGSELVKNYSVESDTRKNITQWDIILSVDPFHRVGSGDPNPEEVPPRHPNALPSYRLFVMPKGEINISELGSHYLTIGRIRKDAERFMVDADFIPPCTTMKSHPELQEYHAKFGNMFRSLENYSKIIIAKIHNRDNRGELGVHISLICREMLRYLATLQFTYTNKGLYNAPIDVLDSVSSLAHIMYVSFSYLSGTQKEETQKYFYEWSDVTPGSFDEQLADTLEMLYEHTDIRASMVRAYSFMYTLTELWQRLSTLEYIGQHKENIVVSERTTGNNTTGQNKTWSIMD

In article PMC10781749:

Columns and labels:
[1] = target: periplasmic domain of TssR with a STREP tag (TssRp^S) (Bacteroides fragilis NCTC 9343) (UniProt Q5LDV5); test: pull-down; periplasmic domains co-produced in E. coli; TssRp^S as bait on a STREP-affinity column; immunoblot
[2] = target: TssN^STREP (tssN tagged at its native locus in B. fragilis NCTC 9343) (Bacteroides fragilis NCTC 9343) (UniProt Q5LDU9); test: pull-down; same two-step affinity purification from B. fragilis membranes; elution probed by Western blot with anti-STREP and anti-HIS
[3] = target: TssN with a C-terminal STREP tag, produced in E. coli (Bacteroides fragilis NCTC 9343) (UniProt Q5LDU9); test: pull-down; pairwise co-production in E. coli; extraction from membranes with detergent; TssN^S as bait on a STREP-affinity column (StrepTrap), elution with desthiobiotin; immunoblot

“periplasmic domain of TssP (TssPp) (from UniProt Q5LDV4) (domain or fragment)” was tested, and the binding [1] was “binds”.

In the case of “^HISTssO (tssO tagged at its native locus in B. fragilis NCTC 9343) (from UniProt Q5LDV3)”, the binding [2] is reported as “binds”.

TssK^HA (from UniProt A0A380YY58) was tested, and the binding [3] was “binds”.

Results are given in words; binding and its absence hold for the method and conditions named. In cells and extracts the contact can be indirect. A result given as binding can be weak or reduced; the word gives no strength.
